This continues a long series; more values of the same kind are listed elsewhere.
Tested on: wildtype (WT) human fibroblast cell lines
Experiment: Transcriptome-wide splicing by RNA sequencing (RNASeq), exon triplet PSI change;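 on Effect: six WT fibroblast lines treated seven days versus DMSO vehicle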;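 on T-PSI: T-PSI is average treated PSI after seven days of treatment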
Assay type: cell-based
Set-up: key to Effect: Exclusion; Inclusion; Unchanged
From the text: FIG. 2A provides a representation of an exon triplet. Exon U is upstream of Exon X, which is upstream of Exon D. R1, R2 and R3 represent RNA sequencing (RNASeq) reads spanning the regions between two adjacent exons. UI1, I1X, XI2 and I2D are four regions flanking the four splice sites of the exon-triplet. Each flanking region consists of 25 exonic base pairs and 75 intronic base pairs.
FIG. 2B provides a volcano plot showing the ψ (PSI: Percent Spliced-In) changes in splicing after treatment with Compound (I). Each dot represents one of the 161,097 expressed exon triplets in human fibroblasts. The x axis represents the ψ changes after treatment and the y axis represents the False Discovery Rate (FDR) (log 10 transformed). […] The horizontal dashed line indicates an FDR of 0.1. The dots on the right side of the right vertical dashed line and above the horizontal dashed line represent the exon-triplets with an increase for Exon X inclusion (Δψ≥0.1 and FDR<0.1) while the dots on left side of the left vertical dashed line and above the horizontal dashed line represent an increase for Exon X exclusion (Δψ≤−0.1 and FDR<0.1). Black dots in-between the two vertical dashed lines represent exon-triplets unchanged from the treatment.
In some aspects, analysis is performed on data derived from the assay to measure the magnitude of splicing to determine the amount of exons spliced into an mRNA transcript that is produced in the presence of Compound (I) relative to the amount in the absence of Compound (I) or presence of a negative control. In a preferred aspect, the method utilized is calculation of change in Percent Spliced In (ΔPSI). […] The ΔPSI value is derived from the formula: […]
The values for “a” and “b” represent the number of reads supporting the probability for potential inclusion or exclusion of an exon in an RNA transcript. The “a” value is derived from the number of reads within an exon triplet covering, in 5′ to 3′ order: the last few bases (>1 nucleotide) of an upstream exon operably linked to the first few bases (>1 nucleotide) of a middle exon. The “b” value is derived from the number of reads within an exon triplet covering, in 5′ to 3′ order: the last few bases (>1 nucleotide) of the middle exon operably linked to the first few bases (>1 nucleotide) of a downstream exon. The number of reads will indicate whether the splice junction of a middle exon has been identified as potentially having a CNN Motif(s) by the CNN Model described herein, wherein the inclusion or exclusion of the middle exon may be modulated in the presence of Compound (I) to produce one or more mature RNA isoforms from the gene transcript. The value for “c” represents the number of reads supporting the exclusion of the middle exon.
The effect on splicing modulation and corresponding splice differences toward exon inclusion or exclusion was determined by counting the RNASeq reads covering two splice junctions of exon triplets (three consecutive exons: Exon U, Exon X, Exon D) and the corresponding intervening introns, then comparing the change in Percent Spliced In (ΔPSI or Δψ) of the middle exon (Exon X) after treatment (as shown in FIG. 2A)^52,53. 934 exon triplets were identified showing differential middle exon inclusion or exclusion in response to Compound (I) treatment. Of these, 254 were exon inclusion events (Δψ≥0.1 and FDR<0.1) and 680 were exon exclusion events (Δψ≤−0.1 and FDR<0.1) (as shown in FIG. 2B). […] The splicing results were evaluated by RT-PCR in independent replicate experiments, confirming all the calculated Δψ values. […]

[1] = DNAJC2 Exon 102967779-102967825
[2] = DNAJC19 Exon 180704731-180704810
[3] = DNAJC19 Exon 180704786-180704810
[4] = DNM1L Exon 32891198-32891230, Intron1 32890096-32891197
[5] = DNM1L Exon 32891198-32891230, Intron1 32890877-32891197
[6] = DPH7 Exon 140471922-140472055, Intron1 140470620-140471921
[7] = DPH7 Exon 140471922-140472055, Intron1 140470855-140471921
[8] = DRAM2 Exon 1116822lO-ll 1682333
[9] = DYNC2H1 Exon 103029406-103029538
[10] = EBPL Exon 50243913-50243982, Intron1 50235345-50243912
[11] = EBPL Exon 50243913-50243982, Intron1 50237332-50243912

What does the source list for `Clc1nc(NCc2ccncc2)c2cc[nH]c2n1` [Compound (I), 2-chloro-N-(pyridin-4-ylmethyl)-7H-pyrrolo[2,3-d]pyrimidin-4-amine]?
ΔPSI (DMD Exon 31196049-31196087): −0.409; Effect (DMKN Exon 35991280-35991321): Unc; T-PSI (DMKN Exon 35991280-35991321): 0.230; ΔPSI (DMKN Exon 35991280-35991321): 0.006; Effect (DMTF1 Exon 86783706-86783844): Exc; T-PSI (DMTF1 Exon 86783706-86783844): 0.076; ΔPSI (DMTF1 Exon 86783706-86783844): −0.144; Effect (DMTF1 Exon 86792555-86792648): Exc; T-PSI (DMTF1 Exon 86792555-86792648): 0.098; ΔPSI (DMTF1 Exon 86792555-86792648): −0.157; Effect (DMTF1 Exon 86824000-86824144): Exc; T-PSI (DMTF1 Exon 86824000-86824144): 0.779; ΔPSI (DMTF1 Exon 86824000-86824144): −0.165; Effect (DMWD Exon 46287899-46287973): Unc; T-PSI (DMWD Exon 46287899-46287973): 0.642; ΔPSI (DMWD Exon 46287899-46287973): −0.006; Effect (DNAAF2 Exon 50094730-50094873): Unc; T-PSI (DNAAF2 Exon 50094730-50094873): 0.673; ΔPSI (DNAAF2 Exon 50094730-50094873): −0.007; Effect [1]: Exc; T-PSI [1]: 0.051; ΔPSI [1]: −0.102; Effect (DNAJC14 Exon 56223273-56223420): Unc; T-PSI (DNAJC14 Exon 56223273-56223420): 0.767; ΔPSI (DNAJC14 Exon 56223273-56223420): 0.003; Effect [2]: Inc; T-PSI [2]: 0.910; ΔPSI [2]: 0.102; Effect [3]: Inc; T-PSI [3]: 0.811; ΔPSI [3]: 0.135; Effect (DNAJC24 Exon 31436358-31436496): Unc; T-PSI (DNAJC24 Exon 31436358-31436496): 0.896; ΔPSI (DNAJC24 Exon 31436358-31436496): −0.008; Effect (DNM1L Exon 32890799-32890876): Inc; T-PSI (DNM1L Exon 32890799-32890876): 0.788; ΔPSI (DNM1L Exon 32890799-32890876): 0.243; Effect [4]: Exc; T-PSI [4]: 0.050; ΔPSI [4]: −0.221; Effect [5]: Exc; T-PSI [5]: 0.180; ΔPSI [5]: −0.366; Effect (DNMT1 Exon 10290863-10290910): Exc; T-PSI (DNMT1 Exon 10290863-10290910): 0.138; ΔPSI (DNMT1 Exon 10290863-10290910): −0.141; Effect (DOCK5 Exon 25246325-25246457): Inc; T-PSI (DOCK5 Exon 25246325-25246457): 0.336; ΔPSI (DOCK5 Exon 25246325-25246457): 0.251; Effect (DOCK7 Exon 62953069-62953083): Exc; T-PSI (DOCK7 Exon 62953069-62953083): 0.691; ΔPSI (DOCK7 Exon 62953069-62953083): −0.221; Effect (DPH3 Exon 16305662-16305736): Inc; T-PSI (DPH3 Exon 16305662-16305736): 0.757; ΔPSI (DPH3 Exon 16305662-16305736): 0.247; Effect [6]: Unc; T-PSI [6]: 0.718; ΔPSI [6]: −0.006; Effect [7]: Unc; T-PSI [7]: 0.850; ΔPSI [7]: −0.004; Effect (DPM1 Exon 49557402-49557492): Unc; T-PSI (DPM1 Exon 49557402-49557492): 0.893; ΔPSI (DPM1 Exon 49557402-49557492): −0.001; Effect (DPY19L4 Exon 95738559-95738669): Exc; T-PSI (DPY19L4 Exon 95738559-95738669): 0.874; ΔPSI (DPY19L4 Exon 95738559-95738669): −0.101; Effect [8]: Inc; T-PSI [8]: 0.668; ΔPSI [8]: 0.202; Effect (DRAM2 Exon 111667364-111667503): Exc; T-PSI (DRAM2 Exon 111667364-111667503): 0.755; ΔPSI (DRAM2 Exon 111667364-111667503): −0.169; Effect (DSCR3 Exon 38605663-38605743): Exc; T-PSI (DSCR3 Exon 38605663-38605743): 0.634; ΔPSI (DSCR3 Exon 38605663-38605743): −0.288; Effect (DTNBP1 Exon 15651544-15651594): Exc; T-PSI (DTNBP1 Exon 15651544-15651594): 0.855; ΔPSI (DTNBP1 Exon 15651544-15651594): −0.108; Effect (DTNBP1 Exon 15651544-15651639): Exc; T-PSI (DTNBP1 Exon 15651544-15651639): 0.751; ΔPSI (DTNBP1 Exon 15651544-15651639): −0.176; Effect (DUS2 Exon 68059318-68059397): Unc; T-PSI (DUS2 Exon 68059318-68059397): 0.860; ΔPSI (DUS2 Exon 68059318-68059397): −0.009; Effect (DUSP11 Exon 73994288-73994334): Exc; T-PSI (DUSP11 Exon 73994288-73994334): 0.659; ΔPSI (DUSP11 Exon 73994288-73994334): −0.322; Effect (DUSP22 Exon 335114-335163): Exc; T-PSI (DUSP22 Exon 335114-335163): 0.479; ΔPSI (DUSP22 Exon 335114-335163): −0.250; Effect [9]: Exc; T-PSI [9]: 0.828; ΔPSI [9]: −0.160; Effect [10]: Exc; T-PSI [10]: 0.441; ΔPSI [10]: −0.302; Effect [11]: Exc; T-PSI [11]: 0.680; ΔPSI [11]: −0.181; Effect (ECHDC2 Exon 53370706-53370762): Unc; T-PSI (ECHDC2 Exon 53370706-53370762): 0.882; ΔPSI (ECHDC2 Exon 53370706-53370762): −0.007; Effect (EDC3 Exon 74979432-74979520): Exc; T-PSI (EDC3 Exon 74979432-74979520): 0.069; ΔPSI (EDC3 Exon 74979432-74979520): −0.112; Effect (EDEM2 Exon 33721908-33721958): Inc; T-PSI (EDEM2 Exon 33721908-33721958): 0.409; ΔPSI (EDEM2 Exon 33721908-33721958): 0.276; Effect (EDRF1 Exon 127417572-127417673): Exc; T-PSI (EDRF1 Exon 127417572-127417673): 0.348; ΔPSI (EDRF1 Exon 127417572-127417673): −0.365; Effect (EFEMP1 Exon 56150034-56150074): Inc; T-PSI (EFEMP1 Exon 56150034-56150074): 0.447; ΔPSI (EFEMP1 Exon 56150034-56150074): 0.125; Effect (EHBP1 Exon 63215066-63215173): Exc

Reference: US20230047208A1, “RNA Splicing Modulation” (The General Hospital Corporation, priority 2020, published 2023)
